Measurements from article PMC3532209.
These are yes or no findings as the source states them, for the method shown. Binding seen in cells or lysates may run through a third protein. A yes stands for co-enrichment or nearness to the bait. Other partners may have been found. Tags and fused reporters may be left off the sequences shown.

The chains behind the UniProt entries cited, without tags or fusion partners.
UniProt P20447: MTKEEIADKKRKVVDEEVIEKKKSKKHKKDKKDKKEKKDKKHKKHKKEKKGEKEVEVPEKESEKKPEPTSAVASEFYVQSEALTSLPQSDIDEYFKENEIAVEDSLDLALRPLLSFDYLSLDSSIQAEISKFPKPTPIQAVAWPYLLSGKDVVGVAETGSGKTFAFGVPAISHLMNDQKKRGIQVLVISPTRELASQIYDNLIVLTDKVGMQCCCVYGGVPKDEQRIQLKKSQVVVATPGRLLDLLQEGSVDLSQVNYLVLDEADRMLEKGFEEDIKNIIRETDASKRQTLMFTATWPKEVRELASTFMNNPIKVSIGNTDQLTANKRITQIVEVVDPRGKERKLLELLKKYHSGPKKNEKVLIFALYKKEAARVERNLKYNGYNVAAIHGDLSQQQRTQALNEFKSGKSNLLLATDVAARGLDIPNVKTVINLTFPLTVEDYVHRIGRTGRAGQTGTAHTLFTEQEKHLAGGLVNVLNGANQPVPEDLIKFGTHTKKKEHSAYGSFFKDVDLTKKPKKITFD
UniProt P10591: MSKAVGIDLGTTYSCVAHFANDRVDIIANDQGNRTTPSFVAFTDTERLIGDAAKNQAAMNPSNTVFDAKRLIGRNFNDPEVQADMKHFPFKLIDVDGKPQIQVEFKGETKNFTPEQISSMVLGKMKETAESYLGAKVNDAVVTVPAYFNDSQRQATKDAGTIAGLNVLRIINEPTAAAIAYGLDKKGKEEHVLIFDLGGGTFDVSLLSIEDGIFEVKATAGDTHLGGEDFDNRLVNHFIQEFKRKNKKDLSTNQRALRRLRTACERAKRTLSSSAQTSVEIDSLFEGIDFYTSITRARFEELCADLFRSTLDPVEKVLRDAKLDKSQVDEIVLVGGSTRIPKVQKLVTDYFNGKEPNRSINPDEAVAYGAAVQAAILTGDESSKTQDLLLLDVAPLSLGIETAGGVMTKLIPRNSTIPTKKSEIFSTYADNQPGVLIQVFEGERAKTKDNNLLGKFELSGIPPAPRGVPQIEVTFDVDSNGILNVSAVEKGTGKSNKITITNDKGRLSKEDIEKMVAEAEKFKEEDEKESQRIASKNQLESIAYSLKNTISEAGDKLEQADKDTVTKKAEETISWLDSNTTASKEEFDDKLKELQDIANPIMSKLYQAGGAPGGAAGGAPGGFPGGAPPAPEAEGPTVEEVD
UniProt P11484: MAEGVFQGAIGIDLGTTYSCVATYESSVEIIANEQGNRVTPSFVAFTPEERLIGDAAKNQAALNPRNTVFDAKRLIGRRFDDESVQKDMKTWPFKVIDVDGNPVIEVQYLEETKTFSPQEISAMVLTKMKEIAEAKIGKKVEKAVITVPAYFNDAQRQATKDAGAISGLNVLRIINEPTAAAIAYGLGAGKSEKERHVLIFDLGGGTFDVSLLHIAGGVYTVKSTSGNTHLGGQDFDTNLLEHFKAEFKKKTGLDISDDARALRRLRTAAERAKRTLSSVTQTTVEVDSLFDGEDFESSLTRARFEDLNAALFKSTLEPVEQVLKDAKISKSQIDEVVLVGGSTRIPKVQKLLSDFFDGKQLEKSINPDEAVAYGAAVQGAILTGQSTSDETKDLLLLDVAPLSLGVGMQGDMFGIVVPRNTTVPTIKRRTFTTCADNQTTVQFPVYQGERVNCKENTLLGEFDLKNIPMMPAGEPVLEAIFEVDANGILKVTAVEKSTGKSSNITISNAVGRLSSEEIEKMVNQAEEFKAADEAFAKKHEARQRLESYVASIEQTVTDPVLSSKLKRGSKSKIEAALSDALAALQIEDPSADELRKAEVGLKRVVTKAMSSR

T1: GST-tagged Mdy2 (S. cerevisiae) (UniProt Q12285)
T1 sequence: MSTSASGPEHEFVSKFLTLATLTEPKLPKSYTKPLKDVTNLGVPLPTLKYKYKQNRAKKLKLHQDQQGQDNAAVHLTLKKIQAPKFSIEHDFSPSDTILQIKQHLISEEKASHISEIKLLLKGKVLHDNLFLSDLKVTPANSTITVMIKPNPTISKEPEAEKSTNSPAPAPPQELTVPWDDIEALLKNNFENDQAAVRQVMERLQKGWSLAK


Biological target: T1, GST-tagged Mdy2 (S. cerevisiae)
Test: affinity purification with mass spectrometry; lysates of GST-tagged Mdy2 strains precipitated with Glutathione Sepharose 4B, washed, eluted with glutathione, SDS-PAGE, bands around 70 kD identified by mass spectrometry

Row | Molecule | binding
1 | ATP-dependent RNA helicase Dbp3 (from UniProt P20447 1-523) | binds
2 | Ssa1 (from UniProt P10591 1-642) | binds
3 | pre-mRNA polyadenylation factor Fip1 (protein, UniProt P45976 1-327) MSSSEDEDDKFLYGSDSELALPSSKRSRDDEADAGASSNPDIVKRQKFDSPVEETPATARDDRSDEDIYSDSSDDDSDSDLEVIISLGPDPTRLDAKLLDSYSTAATSSSKDVISVATDVSNTITKTSDERLITEGEANQGVTATTVKATESDGNVPKAMTGSIDLDKEGIFDSVGITTIDPEVLKEKPWRQPGANLSDYFNYGFNEFTWMEYLHRQEKLQQDYNPRRILMGLLSLQQQGKLNSANDTDSNLGNIIDNNNNVNNANMSNLNSNMGNSMSGTPNPPAPPMHPSFPPLPMFGSFPPFPMPGMMPPMNQQPNQNQNQNSK | binds
4 | checkpoint serine/threonine-protein kinase Bub1 (protein, UniProt P41695 1-1021) MNLDLGSTVRGYESDKDTFPQSKGVSSSQKEQHSQLNQTKIAYEQRLLNDLEDMDDPLDLFLDYMIWISTSYIEVDSESGQEVLRSTMERCLIYIQDMETYRNDPRFLKIWIWYINLFLSNNFHESENTFKYMFNKGIGTKLSLFYEEFSKLLENAQFFLEAKVLLELGAENNCRPYNRLLRSLSNYEDRLREMNIVENQNSVPDSRERLKGRLIYRTAPFFIRKFLTSSLMTDDKENRANLNSNVGVGKSAPNVYQDSIVVADFKSETERLNLNSSKQPSNQRLKNGNKKTSIYADQKQSNNPVYKLINTPGRKPERIVFNFNLIYPENDEEFNTEEILAMIKGLYKVQRRGKKHTEDYTSDKNRKKRKLDVLVERRQDLPSSQPPVVPKSTRIEVFKDDDNPSQSTHHKNTQVQVQTTTSILPLKPVVDGNLAHETPVKPSLTSNASRSPTVTAFSKDAINEVFSMFNQHYSTPGALLDGDDTTTSKFNVFENFTQEFTAKNIEDLTEVKDPKQETVSQQTTSTNETNDRYERLSNSSTRPEKADYMTPIKETTETDVVPIIQTPKEQIRTEDKKSGDNTETQTQLTSTTIQSSPFLTQPEPQAEKLLQTAEHSEKSKEHYPTIIPPFTKIKNQPPVIIENPLSNNLRAKFLSEISPPLFQYNTFYNYNQELKMSSLLKKIHRVSRNENKNPIVDFKKTGDLYCIRGELGEGGYATVYLAESSQGHLRALKVEKPASVWEYYIMSQVEFRLRKSTILKSIINASALHLFLDESYLVLNYASQGTVLDLINLQREKAIDGNGIMDEYLCMFITVELMKVLEKIHEVGIIHGDLKPDNCMIRLEKPGEPLGAHYMRNGEDGWENKGIYLIDFGRSFDMTLLPPGTKFKSNWKADQQDCWEMRAGKPWSYEADYYGLAGVIHSMLFGKFIETIQLQNGRCKLKNPFKRYWKKEIWGVIFDLLLNSGQASNQALPMTEKIVEIRNLIESHLEQHAENHLRNVILSIEEELSHFQYKGKPSRRF | binds

Results, then the molecule that gave them:

Row | binding | Molecule
5 | binds | Ssb1 (from UniProt P11484 1-613)
6 | binds | transketolase Tkl1 (protein, UniProt P23254 1-680) MTQFTDIDKLAVSTIRILAVDTVSKANSGHPGAPLGMAPAAHVLWSQMRMNPTNPDWINRDRFVLSNGHAVALLYSMLHLTGYDLSIEDLKQFRQLGSRTPGHPEFELPGVEVTTGPLGQGISNAVGMAMAQANLAATYNKPGFTLSDNYTYVFLGDGCLQEGISSEASSLAGHLKLGNLIAIYDDNKITIDGATSISFDEDVAKRYEAYGWEVLYVENGNEDLAGIAKAIAQAKLSKDKPTLIKMTTTIGYGSLHAGSHSVHGAPLKADDVKQLKSKFGFNPDKSFVVPQEVYDHYQKTILKPGVEANNKWNKLFSEYQKKFPELGAELARRLSGQLPANWESKLPTYTAKDSAVATRKLSETVLEDVYNQLPELIGGSADLTPSNLTRWKEALDFQPPSSGSGNYSGRYIRYGIREHAMGAIMNGISAFGANYKPYGGTFLNFVSYAAGAVRLSALSGHPVIWVATHDSIGVGEDGPTHQPIETLAHFRSLPNIQVWRPADGNEVSAAYKNSLESKHTPSIIALSRQNLPQLEGSSIESASKGGYVLQDVANPDIILVATGSEVSLSVEAAKTLAAKNIKARVVSLPDFFTFDKQPLEYRLSVLPDNVPIMSVEVLATTCWGKYAHQSFGIDRFGASGKAPEVFKFFGFTPEGVAERAQKTIAFYKGDKLISPLKKAF
